The values that follow come from publication doi:10.1101/2025.08.22.671882.

Protein sequences, listed by entry. Tags and fused reporters are not part of them.
UniProt Q07955: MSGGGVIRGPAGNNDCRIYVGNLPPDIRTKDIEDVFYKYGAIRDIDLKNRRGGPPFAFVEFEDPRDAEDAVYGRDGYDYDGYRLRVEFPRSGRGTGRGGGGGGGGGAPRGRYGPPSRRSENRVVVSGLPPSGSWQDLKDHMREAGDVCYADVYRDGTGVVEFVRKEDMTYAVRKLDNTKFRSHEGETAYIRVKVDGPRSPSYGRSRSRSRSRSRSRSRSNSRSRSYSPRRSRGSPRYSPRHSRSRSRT
UniProt Q13620: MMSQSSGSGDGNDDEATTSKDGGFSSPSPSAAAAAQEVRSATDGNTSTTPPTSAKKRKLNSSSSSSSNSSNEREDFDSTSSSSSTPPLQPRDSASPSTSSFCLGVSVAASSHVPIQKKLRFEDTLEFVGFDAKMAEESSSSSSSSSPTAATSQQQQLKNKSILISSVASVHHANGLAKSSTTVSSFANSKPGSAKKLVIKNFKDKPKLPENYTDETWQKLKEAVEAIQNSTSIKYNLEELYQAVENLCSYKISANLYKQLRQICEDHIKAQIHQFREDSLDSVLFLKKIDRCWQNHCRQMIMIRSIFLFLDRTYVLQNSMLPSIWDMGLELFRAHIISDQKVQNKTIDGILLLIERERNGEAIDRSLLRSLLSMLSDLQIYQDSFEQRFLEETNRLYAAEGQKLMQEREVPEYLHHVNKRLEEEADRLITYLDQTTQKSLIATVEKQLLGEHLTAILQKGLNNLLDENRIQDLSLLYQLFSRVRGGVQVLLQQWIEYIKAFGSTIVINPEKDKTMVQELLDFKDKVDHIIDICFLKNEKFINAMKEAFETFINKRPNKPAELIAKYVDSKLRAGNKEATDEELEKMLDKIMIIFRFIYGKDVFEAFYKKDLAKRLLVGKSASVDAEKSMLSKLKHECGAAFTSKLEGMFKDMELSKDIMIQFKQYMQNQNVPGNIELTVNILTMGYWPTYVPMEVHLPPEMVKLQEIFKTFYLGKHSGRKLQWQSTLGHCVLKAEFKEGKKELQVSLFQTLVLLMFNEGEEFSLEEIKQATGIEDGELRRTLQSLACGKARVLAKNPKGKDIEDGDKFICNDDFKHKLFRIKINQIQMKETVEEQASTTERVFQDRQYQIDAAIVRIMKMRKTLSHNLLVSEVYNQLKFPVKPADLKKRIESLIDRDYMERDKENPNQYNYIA
UniProt P51665: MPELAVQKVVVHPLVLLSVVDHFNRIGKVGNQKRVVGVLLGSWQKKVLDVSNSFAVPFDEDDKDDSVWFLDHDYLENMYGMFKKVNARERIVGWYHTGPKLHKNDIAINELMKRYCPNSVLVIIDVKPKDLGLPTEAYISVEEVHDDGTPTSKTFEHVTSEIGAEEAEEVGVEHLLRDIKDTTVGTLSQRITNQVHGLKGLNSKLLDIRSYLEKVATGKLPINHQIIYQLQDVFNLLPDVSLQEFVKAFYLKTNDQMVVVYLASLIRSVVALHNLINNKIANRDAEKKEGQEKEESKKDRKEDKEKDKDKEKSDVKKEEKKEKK
UniProt Q93008: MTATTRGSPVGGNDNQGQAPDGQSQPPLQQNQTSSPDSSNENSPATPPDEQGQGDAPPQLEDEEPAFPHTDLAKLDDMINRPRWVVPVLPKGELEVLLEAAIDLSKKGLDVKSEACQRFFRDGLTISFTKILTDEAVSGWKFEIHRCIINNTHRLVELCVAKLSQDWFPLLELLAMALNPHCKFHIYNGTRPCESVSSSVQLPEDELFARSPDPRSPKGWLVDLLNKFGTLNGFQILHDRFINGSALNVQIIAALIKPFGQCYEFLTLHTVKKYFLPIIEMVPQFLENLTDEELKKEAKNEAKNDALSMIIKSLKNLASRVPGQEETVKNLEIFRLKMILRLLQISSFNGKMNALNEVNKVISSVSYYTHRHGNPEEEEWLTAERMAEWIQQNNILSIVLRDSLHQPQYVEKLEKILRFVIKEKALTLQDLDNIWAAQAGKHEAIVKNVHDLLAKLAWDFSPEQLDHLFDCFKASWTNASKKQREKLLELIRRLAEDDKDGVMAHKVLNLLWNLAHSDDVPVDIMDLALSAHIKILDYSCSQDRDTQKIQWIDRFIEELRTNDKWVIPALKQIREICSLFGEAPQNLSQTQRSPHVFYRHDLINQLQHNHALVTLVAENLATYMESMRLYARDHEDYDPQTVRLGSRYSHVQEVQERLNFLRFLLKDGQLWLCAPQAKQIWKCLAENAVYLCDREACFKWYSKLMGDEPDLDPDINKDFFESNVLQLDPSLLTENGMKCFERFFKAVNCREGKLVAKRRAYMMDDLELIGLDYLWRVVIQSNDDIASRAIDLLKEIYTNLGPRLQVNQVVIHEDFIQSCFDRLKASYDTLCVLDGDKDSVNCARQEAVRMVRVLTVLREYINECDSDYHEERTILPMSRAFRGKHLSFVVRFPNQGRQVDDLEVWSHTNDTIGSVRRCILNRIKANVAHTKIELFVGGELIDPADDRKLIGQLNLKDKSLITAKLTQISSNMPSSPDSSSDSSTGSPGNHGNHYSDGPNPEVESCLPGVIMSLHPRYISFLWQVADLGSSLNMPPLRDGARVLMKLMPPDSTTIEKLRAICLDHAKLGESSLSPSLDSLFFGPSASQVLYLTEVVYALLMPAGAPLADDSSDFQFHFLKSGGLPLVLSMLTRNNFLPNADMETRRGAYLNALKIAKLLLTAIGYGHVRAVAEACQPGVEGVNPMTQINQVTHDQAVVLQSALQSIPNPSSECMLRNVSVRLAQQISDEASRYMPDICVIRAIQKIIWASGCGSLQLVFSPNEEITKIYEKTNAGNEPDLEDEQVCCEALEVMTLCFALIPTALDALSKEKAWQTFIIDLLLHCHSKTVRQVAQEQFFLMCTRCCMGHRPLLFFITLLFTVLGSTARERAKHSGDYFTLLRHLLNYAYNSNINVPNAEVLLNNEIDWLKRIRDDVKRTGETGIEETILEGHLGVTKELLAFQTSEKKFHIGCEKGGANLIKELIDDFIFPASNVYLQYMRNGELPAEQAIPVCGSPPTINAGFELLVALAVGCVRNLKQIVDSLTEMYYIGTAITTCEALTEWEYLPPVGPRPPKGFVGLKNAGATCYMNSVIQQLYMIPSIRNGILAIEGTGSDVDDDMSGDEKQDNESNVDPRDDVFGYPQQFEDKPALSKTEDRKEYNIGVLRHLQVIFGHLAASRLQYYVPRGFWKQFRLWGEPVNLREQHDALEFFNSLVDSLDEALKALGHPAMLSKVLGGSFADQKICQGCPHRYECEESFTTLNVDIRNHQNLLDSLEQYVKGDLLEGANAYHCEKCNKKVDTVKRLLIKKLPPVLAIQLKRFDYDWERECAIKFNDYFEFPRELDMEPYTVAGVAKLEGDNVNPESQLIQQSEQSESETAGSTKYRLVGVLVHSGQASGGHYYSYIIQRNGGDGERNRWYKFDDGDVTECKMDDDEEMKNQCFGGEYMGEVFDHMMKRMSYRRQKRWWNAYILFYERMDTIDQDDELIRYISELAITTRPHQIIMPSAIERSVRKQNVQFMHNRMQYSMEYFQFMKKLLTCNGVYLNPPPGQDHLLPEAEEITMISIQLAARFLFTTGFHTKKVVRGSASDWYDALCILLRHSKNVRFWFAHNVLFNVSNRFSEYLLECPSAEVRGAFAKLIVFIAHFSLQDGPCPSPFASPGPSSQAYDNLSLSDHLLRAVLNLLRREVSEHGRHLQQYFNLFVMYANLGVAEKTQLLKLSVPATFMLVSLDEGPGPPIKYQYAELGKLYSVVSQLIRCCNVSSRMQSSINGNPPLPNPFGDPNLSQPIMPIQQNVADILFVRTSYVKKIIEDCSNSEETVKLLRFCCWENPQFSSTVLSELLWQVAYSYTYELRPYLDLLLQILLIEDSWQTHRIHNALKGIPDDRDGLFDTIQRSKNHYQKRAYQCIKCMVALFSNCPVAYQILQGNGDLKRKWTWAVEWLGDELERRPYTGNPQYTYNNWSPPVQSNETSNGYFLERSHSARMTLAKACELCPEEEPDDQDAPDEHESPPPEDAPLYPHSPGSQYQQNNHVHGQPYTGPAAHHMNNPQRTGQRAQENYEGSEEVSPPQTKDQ

No constants are given. Whether binding was seen depends on the method and setting. Binding seen in cells or lysates may run through a third protein. Here binding means that the protein was enriched with, or labelled near, the bait; the list need not be complete.

For the test, the target named is T7-tagged SRSF1 expressed in SUIT-2 cells (UniProt Q07955). The test is described as follows: affinity purification with mass spectrometry.

With CUL4B (from UniProt Q13620 1-913), the binding entry is “binds”.
For PSMD7 (from UniProt P51665 1-324), the binding result is “binds”.
With “USP9X (from UniProt Q93008 1-2554) (enzyme)”, the binding result is recorded as “binds”.

B1: USP39, endogenous (enzyme, UniProt Q53GS9 1-565)
chain: MSGRSKRESRGSTRGKRESESRGSSGRVKRERDREREPEAASSRGSPVRVKREFEPASAREAPASVVPFVRVKREREVDEDSEPEREVRAKNGRVDSEDRRSRHCPYLDTINRSVLDFDFEKLCSISLSHINAYACLVCGKYFQGRGLKSHAYIHSVQFSHHVFLNLHTLKFYCLPDNYEIIDSSLEDITYVLKPTFTKQQIANLDKQAKLSRAYDGTTYLPGIVGLNNIKANDYANAVLQALSNVPPLRNYFLEEDNYKNIKRPPGDIMFLLVQRFGELMRKLWNPRNFKAHVSPHEMLQAVVLCSKKTFQITKQGDGVDFLSWFLNALHSALGGTKKKKKTIVTDVFQGSMRIFTKKLPHPDLPAEEKEQLLHNDEYQETMVESTFMYLTLDLPTAPLYKDEKEQLIIPQVPLFNILAKFNGITEKEYKTYKENFLKRFQLTKLPPYLIFCIKRFTKNNFFVEKNPTIVNFPITNVDLREYLSEEVQAVHKNTTYDLIANIVHDGKPSEGSYRIHVLHHGTGKWYELQDLQVTDILPQMITLSEAYIQIWKRRDNDETNQQGA
For B1, the binding entry is listed as “binds”.
